According to the supplement of paper PMC8728848:
This is one part of the list.

How the values were obtained:
Test in all cases: glycan array binding signal (z-score within array); higher = stronger binding
Conditions in all cases: glycan notation: IUPAC condensed, linker removed
[1] = target: GlcNAc(a1-4)Gal(b1-3)GlcNAc
How it was run: (§1)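 Columns mapping to the same glycan were averaged after glycan names were converted to IUPAC-condensed notation. The data come from 3228 arrays in the Consortium for Functional Glycomics database, limited to those with an available protein sequence. Binding is reported as a within-array Z-score averaged across arrays of one protein sequence and across linkers.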

[2] = target: GlcNAc(a1-4)Gal(b1-4)GalNAc
How it was run: as §1

[3] = target: GlcNAc(a1-4)Gal(b1-4)GlcNAc
How it was run: as §1

[4] = target: GlcNAc(a1-4)Gal(b1-4)GlcNAc(b1-3)Gal(b1-4)Glc
How it was run: as §1

[5] = target: GlcNAc(a1-4)Gal(b1-4)GlcNAc(b1-3)Gal(b1-4)GlcNAc
How it was run: as §1

[6] = target: GlcNAc(a1-4)Gal(b1-4)GlcNAc(b1-3)Gal(b1-4)GlcNAc(b1-3)Gal(b1-4)GlcNAc
How it was run: as §1

[7] = target: GlcNAc(a1-4)Gal(b1-4)GlcNAc(b1-3)Gal(b1-4)[Fuc(a1-3)]GlcNAc(b1-3)Gal(b1-4)[Fuc(a1-3)]GlcNAc
How it was run: as §1

[8] = target: GlcNAc(a1-6)Gal(b1-4)GlcNAc
How it was run: as §1

[9] = target: GlcNAc(b1-2)Gal(b1-3)GalNAc
How it was run: as §1

[10] = target: GlcNAc(b1-2)Man(a1-3)[GlcNAc(b1-2)Man(a1-6)]Man(b1-4)GlcNAc(b1-4)GlcNAc
How it was run: as §1

[11] = target: GlcNAc(b1-2)Man(a1-3)[GlcNAc(b1-2)Man(a1-6)]Man(b1-4)GlcNAc(b1-4)[Fuc(a1-6)]GlcNAc
How it was run: as §1

[12] = target: GlcNAc(b1-2)Man(a1-3)[GlcNAc(b1-4)][GlcNAc(b1-2)Man(a1-6)]Man(b1-4)GlcNAc(b1-4)GlcNAc
How it was run: as §1

[13] = target: GlcNAc(b1-2)Man(a1-3)[GlcNAc(b1-4)][GlcNAc(b1-2)Man(a1-6)]Man(b1-4)GlcNAc(b1-4)[Fuc(a1-6)]GlcNAc
How it was run: as §1

[14] = target: GlcNAc(b1-2)[GlcNAc(b1-4)]Man(a1-3)[GlcNAc(b1-2)Man(a1-6)]Man(b1-4)GlcNAc(b1-4)GlcNAc
How it was run: as §1

[15] = target: GlcNAc(b1-2)[GlcNAc(b1-4)]Man(a1-3)[GlcNAc(b1-4)][GlcNAc(b1-2)Man(a1-6)]Man(b1-4)GlcNAc(b1-4)GlcNAc
How it was run: as §1

[16] = target: GlcNAc(b1-2)[GlcNAc(b1-4)]Man(a1-3)[GlcNAc(b1-4)][GlcNAc(b1-2)[GlcNAc(b1-6)]Man(a1-6)]Man(b1-4)GlcNAc(b1-4)GlcNAc
How it was run: as §1

[17] = target: GlcNAc(b1-2)[GlcNAc(b1-4)]Man(a1-3)[GlcNAc(b1-4)][GlcNAc(b1-2)[GlcNAc(b1-6)]Man(a1-6)]Man(b1-4)GlcNAc(b1-4)[Fuc(a1-6)]GlcNAc
How it was run: as §1

[18] = target: GlcNAc(b1-2)[GlcNAc(b1-6)]Man(a1-6)[GlcNAc(b1-2)Man(a1-3)]Man(b1-4)GlcNAc(b1-4)GlcNAc
How it was run: as §1

[19] = target: GlcNAc(b1-2)[GlcNAc(b1-6)]Man(a1-6)[GlcNAc(b1-2)Man(a1-3)]Man(b1-4)GlcNAc(b1-4)[Fuc(a1-6)]GlcNAc
How it was run: as §1

[20] = target: GlcNAc(b1-2)[GlcNAc(b1-6)]Man(a1-6)[GlcNAc(b1-4)][GlcNAc(b1-2)Man(a1-3)]Man(b1-4)GlcNAc(b1-4)GlcNAc
How it was run: as §1

GlcNAc(b1-3)Fuc = target: GlcNAc(b1-3)Fuc
How it was run: as §1

GlcNAc(b1-3)Gal = target: GlcNAc(b1-3)Gal
How it was run: as §1

[21] = target: GlcNAc(b1-3)Gal(b1-3)GalNAc
How it was run: as §1

GlcNAc(b1-3)Gal(b1-4)Glc = target: GlcNAc(b1-3)Gal(b1-4)Glc
How it was run: as §1

[22] = target: GlcNAc(b1-3)Gal(b1-4)GlcNAc
How it was run: as §1

[23] = target: GlcNAc(b1-3)Gal(b1-4)GlcNAc(b1-2)Man(a1-3)[GlcNAc(b1-3)Gal(b1-4)GlcNAc(b1-2)Man(a1-6)]Man(b1-4)GlcNAc(b1-4)GlcNAc
How it was run: as §1

[24] = target: GlcNAc(b1-3)Gal(b1-4)GlcNAc(b1-2)Man(a1-3)[GlcNAc(b1-3)Gal(b1-4)GlcNAc(b1-2)Man(a1-6)]Man(b1-4)GlcNAc(b1-4)[Fuc(a1-6)]GlcNAc
How it was run: as §1

[25] = target: GlcNAc(b1-3)Gal(b1-4)GlcNAc(b1-2)[GlcNAc(b1-3)Gal(b1-4)GlcNAc(b1-6)]Man(a1-6)[GlcNAc(b1-3)Gal(b1-4)GlcNAc(b1-2)Man(a1-3)]Man(b1-4)GlcNAc(b1-4)GlcNAc
How it was run: as §1

[26] = target: GlcNAc(b1-3)Gal(b1-4)GlcNAc(b1-3)Gal(b1-4)GlcNAc
How it was run: as §1

[27] = target: GlcNAc(b1-3)Gal(b1-4)GlcNAc(b1-3)Gal(b1-4)GlcNAc(b1-2)Man(a1-3)[GlcNAc(b1-3)Gal(b1-4)GlcNAc(b1-3)Gal(b1-4)GlcNAc(b1-2)Man(a1-6)]Man(b1-4)GlcNAc(b1-4)GlcNAc
How it was run: as §1

[28] = target: GlcNAc(b1-3)Gal(b1-4)GlcNAc(b1-3)Gal(b1-4)GlcNAc(b1-2)Man(a1-3)[GlcNAc(b1-3)Gal(b1-4)GlcNAc(b1-3)Gal(b1-4)GlcNAc(b1-2)Man(a1-6)]Man(b1-4)GlcNAc(b1-4)[Fuc(a1-6)]GlcNAc
How it was run: as §1

[29] = target: GlcNAc(b1-3)Gal(b1-4)GlcNAc(b1-3)Gal(b1-4)GlcNAc(b1-2)[GlcNAc(b1-3)Gal(b1-4)GlcNAc(b1-3)Gal(b1-4)GlcNAc(b1-6)]Man(a1-6)[GlcNAc(b1-3)Gal(b1-4)GlcNAc(b1-3)Gal(b1-4)GlcNAc(b1-2)Man(a1-3)]Man(b1-4)GlcNAc(b1-4)[Fuc(a1-6)]GlcNAc
How it was run: as §1

[30] = target: GlcNAc(b1-3)Gal(b1-4)GlcNAc(b1-3)Gal(b1-4)GlcNAc(b1-3)Gal(b1-4)GlcNAc(b1-2)Man(a1-3)[GlcNAc(b1-3)Gal(b1-4)GlcNAc(b1-3)Gal(b1-4)GlcNAc(b1-3)Gal(b1-4)GlcNAc(b1-2)Man(a1-6)]Man(b1-4)GlcNAc(b1-4)GlcNAc
How it was run: as §1

[31] = target: GlcNAc(b1-3)Gal(b1-4)GlcNAc(b1-3)Gal(b1-4)GlcNAc(b1-3)Gal(b1-4)GlcNAc(b1-2)Man(a1-3)[GlcNAc(b1-3)Gal(b1-4)GlcNAc(b1-3)Gal(b1-4)GlcNAc(b1-3)Gal(b1-4)GlcNAc(b1-2)Man(a1-6)]Man(b1-4)GlcNAc(b1-4)[Fuc(a1-6)]GlcNAc
How it was run: as §1

[32] = target: GlcNAc(b1-3)Gal(b1-4)GlcNAc(b1-3)Gal(b1-4)GlcNAc(b1-3)Gal(b1-4)GlcNAc(b1-2)[GlcNAc(b1-3)Gal(b1-4)GlcNAc(b1-3)Gal(b1-4)GlcNAc(b1-3)Gal(b1-4)GlcNAc(b1-6)]Man(a1-6)[GlcNAc(b1-3)Gal(b1-4)GlcNAc(b1-3)Gal(b1-4)GlcNAc(b1-3)Gal(b1-4)GlcNAc(b1-2)Man(a1-3)]Man(b1-4)GlcNAc(b1-4)[Fuc(a1-6)]GlcNAc
How it was run: as §1

[33] = target: GlcNAc(b1-3)Gal(b1-4)GlcNAc(b1-3)Gal(b1-4)GlcNAc(b1-3)Gal(b1-4)GlcNAc(b1-3)Gal(b1-4)GlcNAc(b1-2)Man(a1-3)[GlcNAc(b1-3)Gal(b1-4)GlcNAc(b1-3)Gal(b1-4)GlcNAc(b1-3)Gal(b1-4)GlcNAc(b1-3)Gal(b1-4)GlcNAc(b1-2)Man(a1-6)]Man(b1-4)GlcNAc(b1-4)GlcNAc
How it was run: as §1

[34] = target: GlcNAc(b1-3)Gal(b1-4)GlcNAc(b1-3)Gal(b1-4)GlcNAc(b1-3)Gal(b1-4)GlcNAc(b1-3)Gal(b1-4)GlcNAc(b1-2)Man(a1-3)[GlcNAc(b1-3)Gal(b1-4)GlcNAc(b1-3)Gal(b1-4)GlcNAc(b1-3)Gal(b1-4)GlcNAc(b1-3)Gal(b1-4)GlcNAc(b1-2)Man(a1-6)]Man(b1-4)GlcNAc(b1-4)[Fuc(a1-6)]GlcNAc
How it was run: as §1

[35] = target: GlcNAc(b1-3)Gal(b1-4)GlcNAc(b1-3)Gal(b1-4)GlcNAc(b1-3)Gal(b1-4)GlcNAc(b1-3)Gal(b1-4)GlcNAc(b1-2)[GlcNAc(b1-3)Gal(b1-4)GlcNAc(b1-3)Gal(b1-4)GlcNAc(b1-3)Gal(b1-4)GlcNAc(b1-3)Gal(b1-4)GlcNAc(b1-6)]Man(a1-6)[GlcNAc(b1-3)Gal(b1-4)GlcNAc(b1-3)Gal(b1-4)GlcNAc(b1-3)Gal(b1-4)GlcNAc(b1-3)Gal(b1-4)GlcNAc(b1-2)Man(a1-3)]Man(b1-4)GlcNAc(b1-4)[Fuc(a1-6)]GlcNAc
How it was run: as §1

B1: SAOUHSC 02783 (Staphylococcus aureus), Q5HD69 (protein)
chain: MIHSKKLTLGICLVLLIILIVGYVIMTKTNGRNAQIKDTFNQTLKLYPTKNLDDFYDKEGFRDQEFKKGDKGTWIVNSEMVIEPKGKDMETRGMVLYINRNTRTTKGYYFISEMTDDSNGRPKDDEKRYPVKMEHNKIIPTKPLPNDKLKKEIENFKFFVQYGNFKDINDYKDGDISYNPNVPSYSAKYQLNNDDYNVQQLRKRYDIPTKQAPKLLLKGDGDLKGSSVGSRSLEFTFVENKEENIYFTDSVQYTPSEDTRYESN
What does the source list for B1?
glycan array binding signal (z-score) [1]: 0.687; glycan array binding signal (z-score) [2]: -0.19; glycan array binding signal (z-score) [3]: -0.454; glycan array binding signal (z-score) [4]: -0.807; glycan array binding signal (z-score) [5]: 0.739; glycan array binding signal (z-score) [6]: -0.627; glycan array binding signal (z-score) [7]: -0.718; glycan array binding signal (z-score) [8]: -0.399; glycan array binding signal (z-score) [9]: -0.63; glycan array binding signal (z-score) [10]: 0.726; glycan array binding signal (z-score) [11]: 0.323; glycan array binding signal (z-score) [12]: -0.821; glycan array binding signal (z-score) [13]: -0.185; glycan array binding signal (z-score) [14]: 1.11; glycan array binding signal (z-score) [15]: -0.176; glycan array binding signal (z-score) [16]: -0.289; glycan array binding signal (z-score) [17]: -0.162; glycan array binding signal (z-score) [18]: 0.512; glycan array binding signal (z-score) [19]: -1.54; glycan array binding signal (z-score) [20]: -0.218; glycan array binding signal (z-score) (GlcNAc(b1-3)Fuc): -0.235; glycan array binding signal (z-score) (GlcNAc(b1-3)Gal): -0.166; glycan array binding signal (z-score) [21]: -0.447; glycan array binding signal (z-score) (GlcNAc(b1-3)Gal(b1-4)Glc): -0.757; glycan array binding signal (z-score) [22]: -0.202; glycan array binding signal (z-score) [23]: -0.189; glycan array binding signal (z-score) [24]: 0.582; glycan array binding signal (z-score) [25]: 1.19; glycan array binding signal (z-score) [26]: -0.079; glycan array binding signal (z-score) [27]: 2.6; glycan array binding signal (z-score) [28]: -0.227; glycan array binding signal (z-score) [29]: 2.84; glycan array binding signal (z-score) [30]: 0.55; glycan array binding signal (z-score) [31]: 2.46; glycan array binding signal (z-score) [32]: 1.87; glycan array binding signal (z-score) [33]: -0.629; glycan array binding signal (z-score) [34]: -1.23; glycan array binding signal (z-score) [35]: 0.253
